Reference: the supplement of paper PMC10849652
The list shows a part of the results. Residues, ends and D or L forms follow the SMILES beside them. *: point of attachment. Cbz = O=C(OCc1ccccc1)*

Chains of the proteins cited; added tags and fusions are not shown. Lines headed by an entry give the natural chain unless they say otherwise; changes in a name come on top.
UniProt Q9BUV8: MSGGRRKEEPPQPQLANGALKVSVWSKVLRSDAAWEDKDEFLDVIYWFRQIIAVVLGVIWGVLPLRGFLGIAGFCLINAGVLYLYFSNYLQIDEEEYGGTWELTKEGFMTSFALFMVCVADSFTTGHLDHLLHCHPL
UniProt Q5T160: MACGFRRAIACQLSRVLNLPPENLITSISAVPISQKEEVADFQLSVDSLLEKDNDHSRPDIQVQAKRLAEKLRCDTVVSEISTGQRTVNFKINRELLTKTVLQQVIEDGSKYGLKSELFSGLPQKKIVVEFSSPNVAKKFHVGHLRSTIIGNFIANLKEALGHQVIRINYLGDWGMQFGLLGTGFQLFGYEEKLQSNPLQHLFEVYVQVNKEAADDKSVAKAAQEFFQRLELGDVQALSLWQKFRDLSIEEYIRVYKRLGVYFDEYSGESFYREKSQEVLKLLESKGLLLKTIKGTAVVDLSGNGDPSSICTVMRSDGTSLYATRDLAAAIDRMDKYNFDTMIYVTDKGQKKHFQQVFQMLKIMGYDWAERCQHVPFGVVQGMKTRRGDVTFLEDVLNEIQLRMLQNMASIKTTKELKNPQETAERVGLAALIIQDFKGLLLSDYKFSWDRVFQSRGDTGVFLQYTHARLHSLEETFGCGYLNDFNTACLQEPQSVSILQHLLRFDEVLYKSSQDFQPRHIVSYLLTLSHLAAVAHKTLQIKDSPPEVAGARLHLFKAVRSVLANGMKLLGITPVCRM
UniProt Q86X27: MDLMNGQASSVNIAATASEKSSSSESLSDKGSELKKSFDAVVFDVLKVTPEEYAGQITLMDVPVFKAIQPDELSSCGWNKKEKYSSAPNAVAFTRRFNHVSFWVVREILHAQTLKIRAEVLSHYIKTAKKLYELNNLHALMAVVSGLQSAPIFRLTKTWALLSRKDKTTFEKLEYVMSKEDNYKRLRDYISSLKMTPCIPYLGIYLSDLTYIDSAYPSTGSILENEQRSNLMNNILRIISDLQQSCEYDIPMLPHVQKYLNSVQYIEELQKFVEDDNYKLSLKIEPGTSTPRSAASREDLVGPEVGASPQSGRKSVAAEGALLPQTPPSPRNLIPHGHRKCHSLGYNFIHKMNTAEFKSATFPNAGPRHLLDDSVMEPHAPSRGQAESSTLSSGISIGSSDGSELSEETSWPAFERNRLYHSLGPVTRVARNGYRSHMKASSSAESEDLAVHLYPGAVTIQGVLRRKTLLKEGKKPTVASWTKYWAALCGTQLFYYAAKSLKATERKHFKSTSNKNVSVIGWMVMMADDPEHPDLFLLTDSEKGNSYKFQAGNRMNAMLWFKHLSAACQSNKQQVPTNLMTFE
UniProt Q96PK6: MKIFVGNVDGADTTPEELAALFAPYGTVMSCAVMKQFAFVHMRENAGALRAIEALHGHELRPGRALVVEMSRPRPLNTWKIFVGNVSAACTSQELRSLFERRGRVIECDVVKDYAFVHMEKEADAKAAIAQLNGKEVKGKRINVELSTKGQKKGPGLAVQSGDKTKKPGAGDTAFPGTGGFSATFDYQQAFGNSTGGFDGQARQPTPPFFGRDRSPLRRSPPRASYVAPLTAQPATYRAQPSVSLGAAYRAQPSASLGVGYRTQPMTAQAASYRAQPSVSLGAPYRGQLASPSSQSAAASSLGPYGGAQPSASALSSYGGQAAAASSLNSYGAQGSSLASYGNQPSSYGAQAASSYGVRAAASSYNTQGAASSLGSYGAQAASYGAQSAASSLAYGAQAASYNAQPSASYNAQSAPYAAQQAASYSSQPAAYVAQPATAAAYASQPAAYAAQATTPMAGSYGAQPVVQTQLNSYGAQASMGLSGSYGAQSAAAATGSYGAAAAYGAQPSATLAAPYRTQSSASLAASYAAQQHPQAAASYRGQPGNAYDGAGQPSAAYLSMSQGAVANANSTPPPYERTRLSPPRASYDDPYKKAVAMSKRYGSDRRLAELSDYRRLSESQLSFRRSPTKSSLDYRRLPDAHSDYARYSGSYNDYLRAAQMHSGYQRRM
UniProt Q8TBN0: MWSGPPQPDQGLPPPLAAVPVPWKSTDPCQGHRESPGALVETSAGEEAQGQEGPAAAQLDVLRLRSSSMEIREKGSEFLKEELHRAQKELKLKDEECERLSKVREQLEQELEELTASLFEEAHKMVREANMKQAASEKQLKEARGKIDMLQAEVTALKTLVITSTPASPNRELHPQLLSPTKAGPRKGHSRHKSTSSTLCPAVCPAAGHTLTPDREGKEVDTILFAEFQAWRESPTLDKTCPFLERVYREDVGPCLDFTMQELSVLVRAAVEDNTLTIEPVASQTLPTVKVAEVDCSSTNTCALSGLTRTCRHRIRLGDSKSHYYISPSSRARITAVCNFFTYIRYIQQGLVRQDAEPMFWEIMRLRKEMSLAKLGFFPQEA
UniProt P11233: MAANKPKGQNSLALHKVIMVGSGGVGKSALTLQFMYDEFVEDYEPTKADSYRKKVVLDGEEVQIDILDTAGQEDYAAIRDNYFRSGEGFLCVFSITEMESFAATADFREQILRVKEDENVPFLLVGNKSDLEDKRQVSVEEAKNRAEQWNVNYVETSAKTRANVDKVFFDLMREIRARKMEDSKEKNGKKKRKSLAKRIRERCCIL
UniProt Q9H082: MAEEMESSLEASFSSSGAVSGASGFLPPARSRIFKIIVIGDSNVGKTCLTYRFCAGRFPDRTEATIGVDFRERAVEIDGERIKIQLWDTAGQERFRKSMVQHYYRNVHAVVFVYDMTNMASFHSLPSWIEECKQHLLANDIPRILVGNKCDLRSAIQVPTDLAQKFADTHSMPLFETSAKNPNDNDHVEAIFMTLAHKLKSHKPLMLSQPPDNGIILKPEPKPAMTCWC
UniProt O75771: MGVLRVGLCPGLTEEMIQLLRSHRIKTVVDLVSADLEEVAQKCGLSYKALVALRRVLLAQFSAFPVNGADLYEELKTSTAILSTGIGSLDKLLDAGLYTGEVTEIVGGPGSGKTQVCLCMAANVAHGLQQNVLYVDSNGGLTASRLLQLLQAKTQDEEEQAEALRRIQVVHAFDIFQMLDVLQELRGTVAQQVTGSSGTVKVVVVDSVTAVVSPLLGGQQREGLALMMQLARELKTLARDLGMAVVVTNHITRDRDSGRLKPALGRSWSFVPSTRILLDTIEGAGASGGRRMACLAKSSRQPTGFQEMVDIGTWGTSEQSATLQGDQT
UniProt Q7Z6E9: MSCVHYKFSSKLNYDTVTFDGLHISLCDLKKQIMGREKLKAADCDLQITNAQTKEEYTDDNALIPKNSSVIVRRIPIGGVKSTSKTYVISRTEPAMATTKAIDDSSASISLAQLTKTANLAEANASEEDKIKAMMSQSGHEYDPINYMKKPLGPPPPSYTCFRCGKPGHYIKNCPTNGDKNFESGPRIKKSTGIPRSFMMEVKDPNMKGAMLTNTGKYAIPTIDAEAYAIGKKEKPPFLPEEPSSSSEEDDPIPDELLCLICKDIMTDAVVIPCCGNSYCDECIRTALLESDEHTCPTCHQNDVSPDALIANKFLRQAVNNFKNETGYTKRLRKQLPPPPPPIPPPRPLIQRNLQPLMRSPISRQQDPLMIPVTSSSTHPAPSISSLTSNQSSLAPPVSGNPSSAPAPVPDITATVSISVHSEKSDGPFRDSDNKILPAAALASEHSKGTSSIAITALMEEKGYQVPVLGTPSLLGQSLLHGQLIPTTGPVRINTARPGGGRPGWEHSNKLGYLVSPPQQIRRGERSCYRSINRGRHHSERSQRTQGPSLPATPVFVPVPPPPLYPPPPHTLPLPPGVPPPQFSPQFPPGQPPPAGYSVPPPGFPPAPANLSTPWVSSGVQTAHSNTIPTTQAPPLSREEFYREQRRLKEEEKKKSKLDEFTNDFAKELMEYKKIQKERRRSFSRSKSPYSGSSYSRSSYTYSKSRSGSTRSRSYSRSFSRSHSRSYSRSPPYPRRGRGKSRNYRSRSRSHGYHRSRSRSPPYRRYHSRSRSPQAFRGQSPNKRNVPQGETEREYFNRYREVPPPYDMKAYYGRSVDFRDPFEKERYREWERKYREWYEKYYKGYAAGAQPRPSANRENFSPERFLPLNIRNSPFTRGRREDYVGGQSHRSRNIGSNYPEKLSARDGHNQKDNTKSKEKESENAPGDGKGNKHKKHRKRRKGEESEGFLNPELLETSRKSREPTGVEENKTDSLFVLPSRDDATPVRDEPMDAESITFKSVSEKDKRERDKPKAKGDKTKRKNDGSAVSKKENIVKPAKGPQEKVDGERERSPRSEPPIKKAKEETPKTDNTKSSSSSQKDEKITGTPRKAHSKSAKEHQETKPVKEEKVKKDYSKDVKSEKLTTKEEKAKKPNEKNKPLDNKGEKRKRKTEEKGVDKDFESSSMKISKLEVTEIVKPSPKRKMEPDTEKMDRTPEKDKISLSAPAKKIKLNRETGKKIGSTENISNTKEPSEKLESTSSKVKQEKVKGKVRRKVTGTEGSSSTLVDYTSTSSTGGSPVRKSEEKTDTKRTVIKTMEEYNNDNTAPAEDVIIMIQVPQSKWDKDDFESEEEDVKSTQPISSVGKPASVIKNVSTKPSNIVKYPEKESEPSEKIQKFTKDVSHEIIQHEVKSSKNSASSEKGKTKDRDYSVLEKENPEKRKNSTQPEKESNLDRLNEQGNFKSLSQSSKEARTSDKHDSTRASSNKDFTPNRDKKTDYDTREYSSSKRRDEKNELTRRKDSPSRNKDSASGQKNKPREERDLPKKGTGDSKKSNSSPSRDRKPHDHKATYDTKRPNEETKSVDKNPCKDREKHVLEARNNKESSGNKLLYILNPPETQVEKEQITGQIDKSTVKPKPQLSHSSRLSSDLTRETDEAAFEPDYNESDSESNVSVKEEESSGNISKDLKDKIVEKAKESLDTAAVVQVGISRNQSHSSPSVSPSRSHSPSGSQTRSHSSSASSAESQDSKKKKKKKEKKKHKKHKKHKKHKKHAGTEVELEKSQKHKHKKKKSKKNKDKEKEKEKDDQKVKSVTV
UniProt Q92878: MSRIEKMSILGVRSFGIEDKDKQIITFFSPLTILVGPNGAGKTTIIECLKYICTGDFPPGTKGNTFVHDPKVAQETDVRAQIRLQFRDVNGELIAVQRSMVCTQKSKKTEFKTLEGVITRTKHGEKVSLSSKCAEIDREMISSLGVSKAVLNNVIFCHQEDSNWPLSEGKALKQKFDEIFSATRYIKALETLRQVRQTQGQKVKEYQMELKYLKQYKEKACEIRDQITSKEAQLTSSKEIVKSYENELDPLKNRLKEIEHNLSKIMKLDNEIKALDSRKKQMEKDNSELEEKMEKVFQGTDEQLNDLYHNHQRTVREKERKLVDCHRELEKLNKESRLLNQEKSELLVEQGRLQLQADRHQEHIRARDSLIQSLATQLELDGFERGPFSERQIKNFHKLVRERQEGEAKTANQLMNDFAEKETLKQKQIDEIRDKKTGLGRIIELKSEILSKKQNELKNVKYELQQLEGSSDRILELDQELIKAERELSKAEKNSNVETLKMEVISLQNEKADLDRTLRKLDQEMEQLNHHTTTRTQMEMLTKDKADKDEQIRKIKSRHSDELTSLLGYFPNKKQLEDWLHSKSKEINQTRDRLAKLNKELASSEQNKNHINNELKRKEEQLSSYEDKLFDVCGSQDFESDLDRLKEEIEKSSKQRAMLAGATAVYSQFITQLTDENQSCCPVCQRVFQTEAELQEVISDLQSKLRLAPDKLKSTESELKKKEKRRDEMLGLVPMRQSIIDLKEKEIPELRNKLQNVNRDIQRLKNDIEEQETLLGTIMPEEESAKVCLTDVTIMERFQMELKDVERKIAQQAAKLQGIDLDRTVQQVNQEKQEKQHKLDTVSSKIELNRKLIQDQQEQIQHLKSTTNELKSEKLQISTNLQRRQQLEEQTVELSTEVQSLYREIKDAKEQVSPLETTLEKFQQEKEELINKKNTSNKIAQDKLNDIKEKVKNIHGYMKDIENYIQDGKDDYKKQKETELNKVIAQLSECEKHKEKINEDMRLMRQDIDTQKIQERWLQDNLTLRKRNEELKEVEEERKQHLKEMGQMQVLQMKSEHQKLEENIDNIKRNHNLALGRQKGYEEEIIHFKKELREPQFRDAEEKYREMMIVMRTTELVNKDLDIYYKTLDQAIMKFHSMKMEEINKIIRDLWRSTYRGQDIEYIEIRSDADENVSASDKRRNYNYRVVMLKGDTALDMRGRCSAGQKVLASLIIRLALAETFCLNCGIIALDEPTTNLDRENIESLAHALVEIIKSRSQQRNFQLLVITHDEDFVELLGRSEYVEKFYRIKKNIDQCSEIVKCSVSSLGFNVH
UniProt Q92930: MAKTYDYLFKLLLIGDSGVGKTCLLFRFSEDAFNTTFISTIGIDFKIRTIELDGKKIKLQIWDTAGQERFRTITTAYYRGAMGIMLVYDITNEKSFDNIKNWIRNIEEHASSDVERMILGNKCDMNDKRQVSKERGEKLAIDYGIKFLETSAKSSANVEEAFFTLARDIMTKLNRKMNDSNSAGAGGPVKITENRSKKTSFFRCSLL

How the values were obtained:
Experiment in all cases: log2 fold change, soluble protein after heating vs DMSO (PISA); higher = thermal stabilisation; K562 cells, 10 uM, 30 min; active = over 0.2 and 3.5 SD of the protein, either way, in both replicates (recomputed)
[1] = compound: C1COCCN1CCN2C3=CC=CC=C3N=C2NC(=O)C4=CC(=CC=C4)[N+](=O)[O-] [IRAK-1-4 Inhibitor I]
Procedure, shortened: (§1)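 Aliquots of K562 cells (2×10^6 cells/mL) treated with 10 μM compound for 30 min were heated for 3 min over 48°C-58°C. After pooling and extraction in PBS with 0.5% NP-40 at 4°C, soluble protein from a 21,000xg, 90 min spin was quantified by TMTpro 16plex LC-MS/MS with channel sums equalised. Thermal stability is expressed against control samples, from duplicates, as a log2 fold change.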

[2] = compound: C=CC(=O)N1CCC[C@@H](n2nc(-c3ccc(Oc4ccccc4)cc3)c3c(N)ncnc32)C1 [ibrutinib]
Procedure, shortened: as §1

[3] = compound: CC(=O)c1cnc2ccc(-c3cc(Cl)c(O)c(Cl)c3)nc2c1N[C@H]1CC[C@H](CN(C)C)CC1
Procedure, shortened: as §1

[4] = compound: CC(C)(C)Cn1c(N)nc2ccc(-c3[nH]c(C(C)(C)C)nc3-c3ccc(F)cc3)nc21 [ralimetinib]
Procedure, shortened: as §1

[5] = compound: CC(C)(O)CC(=O)NCCn1ccc2ncnc(Nc3ccc(Oc4cccc(C(F)(F)F)c4)c(Cl)c3)c21
Procedure, shortened: as §1

[6] = compound: CC(C)C1=C2N=C(C=C(N2N=C1)NCC3=CC=CC=C3)NCCCCCCN
Procedure, shortened: as §1

[7] = compound: CC(C)C[C@@H](C=O)NC(=O)[C@H](CC(C)C)NC(=O)[C@H](CC(C)C)NC(=O)OCc1ccccc1
Procedure, shortened: as §1

[8] = compound: CC(C)N(C[C@H]1O[C@@H](n2cnc3c(N)ncnc32)[C@H](O)[C@@H]1O)[C@H]1C[C@@H](CCc2nc3cc(C(C)(C)C)ccc3[nH]2)C1 [pinometostat]
Procedure, shortened: as §1

[9] = compound: CC1=C(C2=C(C=C1)C(=O)C3=CC=CC=C3N2CCCN)C
Procedure, shortened: as §1

[10] = compound: CC1=C(C(CC(=O)N1)C2=CC=C(C=C2)C(F)(F)F)C(=O)NC3=C(C=C4C(=C3)C=NN4)F
Procedure, shortened: as §1

Measured: log2 fold change

RAB5IF isoform 5 (UniProt Q9BUV8)
inactive: [1] -0.082 | [2] 0.031 | [3] 0.048 | [4] 0.3 | [5] 0.021 | [6] -0.187 | [7] -0.143 | [8] -0.105 | [9] -0.036

RAB4A (UniProt P20338)
inactive: [1] 0.015 | [2] 0.04 | [3] -0.046 | [4] -0.017 | [5] -0.004 | [6] 0.061 | [7] -0.01 | [8] -0.08 | [10] -0.017 | [9] 0.01

RAN (UniProt P62826)
inactive: [1] 0.073 | [2] 0.017 | [3] 0.004 | [4] -0.039 | [5] 0.029 | [6] 0.039 | [7] -0.022 | [8] -0.027 | [10] 0.023 | [9] -0.047

RARS2 (UniProt Q5T160)
inactive: [1] 0.053 | [2] 0.003 | [3] -0.012 | [4] -0.039 | [5] -0.081 | [6] -0.214 | [7] -0.061 | [8] -0.032 | [9] -0.007

RAPGEF2, A0A2R8YGD3
inactive: [1] 0.031 | [2] -0.024 | [3] -0.078 | [4] -0.11 | [5] -0.024 | [6] -0.032 | [7] 0.009 | [8] 0.002 | [9] 0.09

RAB6A isoform 2 (UniProt P20340)
inactive: [1] 0.085 | [2] 0.003 | [3] -0.018 | [4] -0.017 | [5] 0.037 | [6] 0.09 | [7] -0.054 | [8] 0.011 | [10] 0.004 | [9] 0.027

RB1 (UniProt P06400)
inactive: [1] 0.015 | [2] 0.025 | [4] -0.06 | [5] -0.054 | [7] 0.032 | [8] -0.006 | [9] -0.035
active: [3] -0.761 | [6] -0.386

RBM22 (UniProt Q9NW64)
inactive: [1] 0.014 | [2] -0.032 | [3] 0.029 | [4] 0.048 | [5] 0.071 | [6] 0.068 | [7] 0.104 | [8] 0.015 | [9] 0.124

RABGAP1L isoform 3 (UniProt Q5R372)
inactive: [1] 0.057 | [2] 0.02 | [3] 0.011 | [4] -0.012 | [5] -0.206 | [6] -0.068 | [7] -0.034 | [8] -0.006 | [9] 0.055

RAB5A (UniProt P20339)
inactive: [1] 0.008 | [2] 0.023 | [3] 0.028 | [4] 0.024 | [5] -0.077 | [6] 0.015 | [7] -0.051 | [8] -0.037 | [10] -0.023 | [9] 0.078

RAB5C isoform 2 (UniProt P51148)
inactive: [1] 0.015 | [2] 0.017 | [3] 0.039 | [4] 0.027 | [5] -0.012 | [6] 0.064 | [7] -0.042 | [8] -0.028 | [9] -0.032

RALGPS2 (UniProt Q86X27)
inactive: [1] -0.249 | [2] 0.061 | [3] -0.045 | [5] 0.051 | [6] 0.141 | [8] 0.397 | [9] 0.029

RAD50, A0A494C0Y7
inactive: [1] 0.015 | [2] 0.072 | [3] -0.037 | [4] -0.085 | [7] 0.196 | [8] 0.015 | [9] 0.051

RBM14 (UniProt Q96PK6)
inactive: [1] -0.143 | [2] 0.15 | [3] 0.072 | [4] 0.118 | [6] -0.214 | [7] 0.058 | [8] 0.174 | [9] 0.12

RAB3IL1 (UniProt Q8TBN0)
inactive: [1] 0.018 | [2] -0.009 | [3] 0.018 | [4] 0.064 | [5] -0.036 | [6] -0.014 | [7] 0.057 | [8] -0.029 | [9] 0.037

Quoted at random: two entries already listed
RAN (UniProt P62826)
inactive: [1] 0.073 | [2] 0.017 | [3] 0.004 | [4] -0.039 | [5] 0.029 | [6] 0.039 | [7] -0.022 | [8] -0.027 | [10] 0.023 | [9] -0.047

RAB5A (UniProt P20339)
inactive: [1] 0.008 | [2] 0.023 | [3] 0.028 | [4] 0.024 | [5] -0.077 | [6] 0.015 | [7] -0.051 | [8] -0.037 | [10] -0.023 | [9] 0.078

Next part

RAC1 (UniProt P63000)
inactive: [1] -0.053 | [2] 0.036 | [3] 0.038 | [4] -0.01 | [5] 0.27 | [6] 0.051 | [7] -0.026 | [8] -0.127 | [9] -0.002

RBM17 (UniProt Q96I25)
inactive: [1] -0.037 | [2] 0.114 | [3] -0.179 | [4] 0.158 | [5] -0.077 | [6] -0.053 | [7] 0.029 | [8] 0.11 | [9] 0.012

RALA (UniProt P11233)
inactive: [1] -0.005 | [2] 0.038 | [3] 0.018 | [4] -0.113 | [5] 0.096 | [6] 0.103 | [7] -0.033 | [8] -0.123 | [9] 0.054

RAB33B (UniProt Q9H082)
inactive: [1] 0.072 | [2] 0.016 | [3] -0.019 | [4] -0.092 | [5] 0.027 | [6] 0.113 | [7] 0.112 | [8] -0.015 | [9] -0.002

RANBP2 (UniProt P49792)
inactive: [1] 0.024 | [2] 0.035 | [3] 0.081 | [4] 0.022 | [5] -0.043 | [6] -0.136 | [7] 0.024 | [8] -0.017 | [9] 0.076

RALGAPB (UniProt Q86X10)
inactive: [1] -0.078 | [2] 0 | [3] -0.074 | [4] 0.014 | [5] -0.026 | [7] 0.063 | [8] 0.042 | [10] -0.007 | [9] 0.024

RBM25 (UniProt P49756)
inactive: [1] 0.031 | [2] 0.01 | [3] -0.032 | [4] 0.102 | [5] -0.044 | [6] 0.026 | [7] 0.057 | [8] -0.039 | [9] 0.042

RABGGTA (UniProt Q92696)
inactive: [1] 0.064 | [2] -0.021 | [3] -0.02 | [4] -0.038 | [5] -0.021 | [6] 0.049 | [7] -0.041 | [8] -0.027 | [9] 0.046

RARS (UniProt P54136)
inactive: [1] -0.087 | [2] -0.024 | [3] 0.12 | [4] 0.097 | [5] -0.001 | [7] 0.096 | [8] 0.32 | [9] 0.009
active: [6] -0.545

RAD51D (UniProt O75771)
inactive: [1] -0.007 | [2] -0.077 | [3] -0.304 | [4] -0.248 | [6] 0.017 | [7] -0.071 | [8] 0.07 | [10] 0.182 | [9] 0.019

RAB27B (UniProt O00194)
inactive: [1] 0.142 | [2] 0.023 | [3] 0.047 | [4] -0.001 | [6] 0.054 | [7] 0.106 | [8] -0.02 | [10] -0.018 | [9] 0.027

RBBP6 (UniProt Q7Z6E9)
inactive: [1] -0.099 | [2] -0.082 | [3] -0.114 | [4] 0.02 | [5] 0.044 | [6] -0.089 | [7] -0.023 | [8] -0.078 | [9] -0.022

RAD50 isoform 2 (UniProt Q92878)
inactive: [1] -0.005 | [2] -0.004 | [3] -0.099 | [4] -0.03 | [5] -0.003 | [6] -0.002 | [7] -0.014 | [8] -0.013 | [9] 0.006

RAC3 (UniProt P60763)
inactive: [1] 0.115 | [2] 0.022 | [3] 0.104 | [4] -0.008 | [5] 0.032 | [6] 0.082 | [7] -0.009 | [8] -0.081 | [9] 0.102

RAPGEF5, A0A590UJR0
inactive: [1] 0.04 | [2] -0.031 | [3] -0.025 | [4] -0.156 | [6] 0.155 | [7] -0.083 | [8] -0.146 | [10] -0.07 | [9] 0.068

RAB8B (UniProt Q92930)
inactive: [1] 0.028 | [2] -0.009 | [3] 0 | [4] -0.001 | [5] -0.047 | [6] -0.002 | [7] 0.046 | [8] -0.091 | [9] 0.004

RAD51 (UniProt Q06609)
inactive: [1] 0.017 | [2] 0.013 | [3] -0.061 | [4] -0.074 | [5] -0.059 | [6] -0.016 | [7] 0.048 | [8] -0.024 | [9] 0.102

RAF1 isoform 2 (UniProt P04049)
inactive: [1] -0.038 | [2] -0.058 | [3] -0.263 | [4] -0.054 | [5] -0.072 | [6] -0.12 | [7] 0.066 | [8] 0.29 | [9] 0.09
